Paper PMC6001375, “CLERK is a novel receptor kinase required for sensing of root-active CLE peptides in Arabidopsis” (Development (Cambridge, England), 2018)
Results are given in words; binding and its absence hold for the method and conditions named.

Columns and labels:
[1] = target: T1, BARELY ANY MERISTEM 3 (BAM3) ectodomain (Arabidopsis thaliana) (UniProt O65440); experiment: condition: 100 µg NIK1-ECD, equimolar BAM3-ECD, with 50 µM CLE45; SEC; analytical gel filtration, Superdex 200 Increase 10/300 GL, 20 mM citrate (pH 5.0), 150 mM NaCl; 100 µg of each NIK-ECD, CLERK-ECD or At5G63710-ECD mixed with equimolar BAM1-ECD, BAM3-ECD or PXY-ECD and 50 µM CLE9, CLE45 or CLE41 peptide, respectively; fractions on Coomassie-stained gels; both purified
T1 sequence: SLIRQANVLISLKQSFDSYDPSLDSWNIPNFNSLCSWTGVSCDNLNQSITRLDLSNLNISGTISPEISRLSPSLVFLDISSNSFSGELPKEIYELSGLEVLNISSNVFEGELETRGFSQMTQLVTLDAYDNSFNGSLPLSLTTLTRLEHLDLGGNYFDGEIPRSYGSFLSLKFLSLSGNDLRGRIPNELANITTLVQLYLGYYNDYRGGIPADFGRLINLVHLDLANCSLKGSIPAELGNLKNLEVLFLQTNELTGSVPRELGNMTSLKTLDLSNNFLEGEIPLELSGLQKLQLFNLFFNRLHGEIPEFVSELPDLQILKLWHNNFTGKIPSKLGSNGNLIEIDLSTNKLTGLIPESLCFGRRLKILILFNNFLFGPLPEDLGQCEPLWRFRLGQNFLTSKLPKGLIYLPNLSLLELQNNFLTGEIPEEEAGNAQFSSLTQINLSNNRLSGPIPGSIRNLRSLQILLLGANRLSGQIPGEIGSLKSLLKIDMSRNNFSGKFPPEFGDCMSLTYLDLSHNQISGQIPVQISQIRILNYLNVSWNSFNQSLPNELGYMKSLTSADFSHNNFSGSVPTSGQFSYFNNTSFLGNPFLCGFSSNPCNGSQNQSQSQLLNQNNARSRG

[2] = target: T2, BARELY ANY MERISTEM 1 (BAM1) ectodomain (Arabidopsis thaliana) (UniProt O49545); experiment: condition: 100 µg NIK1-ECD, equimolar BAM1-ECD, with 50 µM CLE9; SEC; analytical gel filtration, Superdex 200 Increase 10/300 GL, 20 mM citrate (pH 5.0), 150 mM NaCl; 100 µg of each NIK-ECD, CLERK-ECD or At5G63710-ECD mixed with equimolar BAM1-ECD, BAM3-ECD or PXY-ECD and 50 µM CLE9, CLE45 or CLE41 peptide, respectively; fractions on Coomassie-stained gels; both purified
T2 sequence: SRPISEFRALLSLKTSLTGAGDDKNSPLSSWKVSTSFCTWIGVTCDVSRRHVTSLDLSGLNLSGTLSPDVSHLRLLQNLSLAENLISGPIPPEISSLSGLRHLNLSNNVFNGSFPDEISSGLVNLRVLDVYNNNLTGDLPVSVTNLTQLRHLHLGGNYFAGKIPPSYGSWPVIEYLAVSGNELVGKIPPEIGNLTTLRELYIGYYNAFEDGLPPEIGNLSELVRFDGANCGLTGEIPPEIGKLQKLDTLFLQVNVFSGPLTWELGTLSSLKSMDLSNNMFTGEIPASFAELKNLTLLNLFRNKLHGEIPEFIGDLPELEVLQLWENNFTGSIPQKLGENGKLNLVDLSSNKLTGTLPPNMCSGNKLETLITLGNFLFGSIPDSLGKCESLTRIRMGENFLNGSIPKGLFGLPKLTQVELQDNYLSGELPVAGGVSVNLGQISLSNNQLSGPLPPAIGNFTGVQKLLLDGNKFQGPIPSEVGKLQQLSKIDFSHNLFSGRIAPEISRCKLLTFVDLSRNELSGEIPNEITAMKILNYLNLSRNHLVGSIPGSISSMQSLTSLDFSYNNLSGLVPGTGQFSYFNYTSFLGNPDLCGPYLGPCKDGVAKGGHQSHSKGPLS

[3] = target: T3, PHLOEM … WITH XYLEM (PXY) ectodomain (Arabidopsis thaliana) (UniProt Q9FII5); experiment: condition: 100 µg NIK1-ECD, equimolar PXY-ECD, with 50 µM CLE41; SEC; analytical gel filtration, Superdex 200 Increase 10/300 GL, 20 mM citrate (pH 5.0), 150 mM NaCl; 100 µg of each NIK-ECD, CLERK-ECD or At5G63710-ECD mixed with equimolar BAM1-ECD, BAM3-ECD or PXY-ECD and 50 µM CLE9, CLE45 or CLE41 peptide, respectively; fractions on Coomassie-stained gels; both purified
T3 sequence: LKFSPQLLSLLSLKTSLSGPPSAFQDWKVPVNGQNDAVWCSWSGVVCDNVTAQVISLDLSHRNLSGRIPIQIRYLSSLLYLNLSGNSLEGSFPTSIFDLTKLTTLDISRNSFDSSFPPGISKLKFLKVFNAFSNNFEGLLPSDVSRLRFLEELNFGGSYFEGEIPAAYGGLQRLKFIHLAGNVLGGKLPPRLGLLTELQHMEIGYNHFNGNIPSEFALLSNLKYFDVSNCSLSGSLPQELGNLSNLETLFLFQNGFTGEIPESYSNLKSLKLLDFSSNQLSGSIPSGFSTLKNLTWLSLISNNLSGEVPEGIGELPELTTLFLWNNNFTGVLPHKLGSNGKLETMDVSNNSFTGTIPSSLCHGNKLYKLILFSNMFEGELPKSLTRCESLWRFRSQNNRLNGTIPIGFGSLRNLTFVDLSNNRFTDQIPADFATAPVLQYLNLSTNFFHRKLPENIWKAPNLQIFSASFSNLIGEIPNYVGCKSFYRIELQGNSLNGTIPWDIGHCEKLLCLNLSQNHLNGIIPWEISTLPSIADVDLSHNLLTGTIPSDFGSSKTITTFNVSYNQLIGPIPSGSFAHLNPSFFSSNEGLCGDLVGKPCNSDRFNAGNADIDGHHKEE

[4] = target: T3, PHLOEM … WITH XYLEM (PXY) ectodomain (Arabidopsis thaliana); experiment: condition: 100 µg NIK2-ECD, equimolar PXY-ECD, with 50 µM CLE41; SEC; analytical gel filtration, Superdex 200 Increase 10/300 GL, 20 mM citrate (pH 5.0), 150 mM NaCl; 100 µg of each NIK-ECD, CLERK-ECD or At5G63710-ECD mixed with equimolar BAM1-ECD, BAM3-ECD or PXY-ECD and 50 µM CLE9, CLE45 or CLE41 peptide, respectively; fractions on Coomassie-stained gels; both purified
[5] = target: T2, BARELY ANY MERISTEM 1 (BAM1) ectodomain (Arabidopsis thaliana); experiment: condition: 100 µg NIK2-ECD, equimolar BAM1-ECD, with 50 µM CLE9; SEC; analytical gel filtration, Superdex 200 Increase 10/300 GL, 20 mM citrate (pH 5.0), 150 mM NaCl; 100 µg of each NIK-ECD, CLERK-ECD or At5G63710-ECD mixed with equimolar BAM1-ECD, BAM3-ECD or PXY-ECD and 50 µM CLE9, CLE45 or CLE41 peptide, respectively; fractions on Coomassie-stained gels; both purified
[6] = target: T1, BARELY ANY MERISTEM 3 (BAM3) ectodomain (Arabidopsis thaliana); experiment: condition: 100 µg NIK2-ECD, equimolar BAM3-ECD, with 50 µM CLE45; SEC; analytical gel filtration, Superdex 200 Increase 10/300 GL, 20 mM citrate (pH 5.0), 150 mM NaCl; 100 µg of each NIK-ECD, CLERK-ECD or At5G63710-ECD mixed with equimolar BAM1-ECD, BAM3-ECD or PXY-ECD and 50 µM CLE9, CLE45 or CLE41 peptide, respectively; fractions on Coomassie-stained gels; both purified

Measured: binding

B1: NSP-… KINASE 1 (NIK1) ectodomain (domain or fragment, UniProt Q9LFS4 32-248)
chain: LLSPKGVNFEVQALMDIKASLHDPHGVLDNWDRDAVDPCSWTMVTCSSENFVIGLGTPSQNLSGTLSPSITNLTNLRIVLLQNNNIKGKIPAEIGRLTRLETLDLSDNFFHGEIPFSVGYLQSLQYLRLNNNSLSGVFPLSLSNMTQLAFLDLSYNNLSGPVPRFAAKTFSIVGNPLICPTGTEPDCNGTTLIPMSMNLNQTGVPLYAGGSRNHKMA
no binding: [1] | [2] | [3]

B2: NSP-… KINASE 2 (NIK2) ectodomain (domain or fragment, UniProt Q8RY65 33-248)
chain: ELTDKGVNFEVVALIGIKSSLTDPHGVLMNWDDTAVDPCSWNMITCSDGFVIRLEAPSQNLSGTLSSSIGNLTNLQTVLLQNNYITGNIPHEIGKLMKLKTLDLSTNNFTGQIPFTLSYSKNLQYLRVNNNSLTGTIPSSLANMTQLTFLDLSYNNLSGPVPRSLAKTFNVMGNSQICPTGTEKDCNGTQPKPMSITLNSSQNKSSDGGTKNRKIA
no binding: [4] | [5] | [6]
